These are yes or no findings as the source states them, for the method shown. Binding seen in cells or lysates may run through a third protein. For part of these data: Tags and fused reporters may be left off the sequences shown.
B1: LRRC4 (pCDNA3.1-LRRC4) (protein, UniProt Q9HBW1 39-653)
chain: ASAGPQNCPSVCSCSNQFSKVVCTRRGLSEVPQGIPSNTRYLNLMENNIQMIQADTFRHLHHLEVLQLGRNSIRQIEVGAFNGLASLNTLELFDNWLTVIPSGAFEYLSKLRELWLRNNPIESIPSYAFNRVPSLMRLDLGELKKLEYISEGAFEGLFNLKYLNLGMCNIKDMPNLTPLVGLEELEMSGNHFPEIRPGSFHGLSSLKKLWVMNSQVSLIERNAFDGLASLVELNLAHNNLSSLPHDLFTPLRYLVELHLHHNPWNCDCDILWLAWWLREYIPTNSTCCGRCHAPMHMRGRYLVEVDQASFQCSAPFIMDAPRDLNISEGRMAELKCRTPPMSSVKWLLPNGTVLSHASRHPRISVLNDGTLNFSHVLLSDTGVYTCMVTNVAGNSNASAYLNVSTAELNTSNYSFFTTVTVETTEISPEDTTRKYKPVPTTSTGYQPAYTTSTTVLIQTTRVPKQVAVPATDTTDKMQTSLDEVMKTTKIIIGCFVAVTLLAAAMLIVFYKLRKRHQQRSTVTAARTVEIIQVDEDIPAATSAAATAAPSGVSGEGAVVLPTIHDHINYNTYKPAHGAHWTENSLGNSLHPTVTTISEPYIIQTHTKDKVQETQI
B2: FLAG-tagged LRRC4 (protein, UniProt Q9HBW1 39-653)
chain: B1 chain

Key:
[1] = target: GFP-tagged DEPTOR with deletion of the PDZ domain; test: co-IP; transfected HEK293 or U251 cells lysed in IP buffer (25 mM Tris pH 7.5, 150 mM NaCl, 1% Triton X-100, 1 mM EDTA); antibody at 4 °C overnight, Protein A/G magnetic beads 2 h at 4 °C, four washes; western blot
[2] = target: GST-fused DEP domain of DEPTOR; test: pull-down; purified GST fusion proteins of DEPTOR on glutathione-Sepharose 4B beads incubated 4 h with lysate of HEK293 cells transfected with FLAG-tagged LRRC4, IP buffer, four washes; western blot; only the target purified
GST-fused DEPTOR ΔPDZ = test: as above

Binder | binding [1] | binding [2] | binding (GST-fused DEPTOR ΔPDZ)
B1 | no binding | – | –
B2 | – | no binding | no binding
